doi:10.1101/266833
No constants are given. Whether binding was seen depends on the method and setting. Binding seen in cells or lysates may run through a third protein. Here binding means that the protein was enriched with, or labelled near, the bait; the list need not be complete.

B1: Pat1 (protein, UniProt P25644 1-796)
chain: MSFFGLENSGNARDGPLDFEESYKGYGEHELEENDYLNDETFGDNVQVGTDFDFGNPHSSGSSGNAIGGNGVGATARSYVAATAEGISGPRTDGTAAAGPLDLKPMESLWSTAPPPAMAPSPQSTMAPAPAPQQMAPLQPILSMQDLERQQRQMQQQFMNFHAMGHPQGLPQGPPQQQFPMQPASGQPGPSQFAPPPPPPGVNVNMNQMPMGPVQVPVQASPSPIGMSNTPSPGPVVGATKMPLQSGRRSKRDLSPEEQRRLQIRHAKVEKILKYSGLMTPRDKDFITRYQLSQIVTEDPYNEDFYFQVYKIIQRGGITSESNKGLIARAYLEHSGHRLGGRYKRTDIALQRMQSQVEKAVTVAKERPSKLKDQQAAAGNSSQDNKQANTVLGKISSTLNSKNPRRQLQIPRQQPSDPDALKDVTDSLTNVDLASSGSSSTGSSAAAVASKQRRRSSYAFNNGNGATNLNKSGGKKFILELIETVYEEILDLEANLRNGQQTDSTAMWEALHIDDSSYDVNPFISMLSFDKGIKIMPRIFNFLDKQQKLKILQKIFNELSHLQIIILSSYKTTPKPTLTQLKKVDLFQMIILKIIVSFLSNNSNFIEIMGLLLQLIRNNNVSFLTTSKIGLNLITILISRAALIKQDSSRSNILSSPEISTWNEIYDKLFTSLESKIQLIFPPREYNDHIMRLQNDKFMDEAYIWQFLASLALSGKLNHQRIIIDEVRDEIFATINEAETLQKKEKELSVLPQRSQELDTELKSIIYNKEKLYQDLNLFLNVMGLVYRDGEISELK
B2: Rbs1 (protein, UniProt Q05672 1-457)
chain: MTALDSRNWGLTPAMETGLFQKPQDRIFIIELENSIVSFINSNTESFQLRPMNSYYRLLSHQIAEYHNLNHVLARTQDSCVILFKGENFQKIEGKPLLQELQLNKKPEECASSSESIEKSNNNRIFRILKRKEVGNECDYKIDGNTRTPNSNLTANSNKDQKIEIDDKSSTDLEQERIEKERLYEQRKQEIFDKLNKSEDDVKSTNSSGSSDSDNEWSDWLNGDDSNTQTSNGSVSSSSPFNSSVTTIQVNKPQQQFYDSRRGRGGRRRGTNNYKDAYRGQSRRNKENGGYQSGYSSPYLVYPPPQMGGNSLPTYPLMYNPAGPAPGPAPSPMVMGNNTVFMNPYMYNMNPQGSCSFGTPIPMYPPYQYQYQYQYNTQYHSGPYSNTPSYNSNNYTRSSANKYHHFQGKNSYSGAIPKRSDDSNSNKNEGIRRASVEGSPSSRDTDSVEMKFDKLNI
B3: Gbp2 (protein, UniProt P25555 1-427)
chain: MERELGMYGNDRSRSRSPVRRRLSDDRDRYDDYNDSSSNNGNGSRRQRRDRGSRFNDRYDQSYGGSRYHDDRNWPPRRGGRGRGGSRSFRGGRGGGRGRTLGPIVERDLERQFDATKRNFENSIFVRNLTFDCTPEDLKELFGTVGEVVEADIITSKGHHRGMGTVEFTKNESVQDAISKFDGALFMDRKLMVRQDNPPPEAAKEFSKKATREEIDNGFEVFIINLPYSMNWQSLKDMFKECGHVLRADVELDFNGFSRGFGSVIYPTEDEMIRAIDTFNGMEVEGRVLEVREGRFNKRKNNDRYNQRREDLEDTRGTEPGLAQDAAVHIDETAAKFTEGVNPGGDRNCFIYCSNLPFSTARSDLFDLFGPIGKINNAELKPQENGQPTGVAVVEYENLVDADFCIQKLNNYNYGGCSLQISYARRD
B4: Lhp1 (protein, UniProt P33399 1-275)
chain: MSEKPQQEEQEKPQSRRNSFAVIEFTPEVLDRCLKQVEFYFSEFNFPYDRFLRTTAEKNDGWVPISTIATFNRMKKYRPVDKVIEALRSSEILEVSADGENVKRRVPLDLTAARNARIEQNQRTLAVMNFPHEDVEASQIPELQENLEAFFKKLGEINQVRLRRDHRNKKFNGTVLVEFKTIPECEAFLKSYSNDDESNEILSYEGKKLSVLTKKQFDLQREASKSKNFSGRSRSFNGHKKKNLPKFPKNKKKNGKEESKEDSSAIADDDEEHKE
B5: Lsm12 (protein, UniProt P38828 1-187)
chain: MSVSLEQTLGFRIKVTNVLDVVTEGRLYSFNSSNNTLTIQTTKKNQSPQNFKVIKCTFIKHLEVIGDKPSFNSFKKQQIKPSYVNVERVEKLLKESVIASKKKELLRGKGVSAEGQFIFDQIFKTIGDTKWVAKDIIILDDVKVQPPYKVEDIKVLHEGSNQSITLIQRIVERSWEQLEQDDGRKGG
B6: Sbp1 (protein, UniProt P10080 1-294)
chain: MSAEIEEATNAVNNLSINDSEQQPRAPTHKTVIDPEDTIFIGNVAHECTEDDLKQLFVEEFGDEVSVEIPIKEHTDGHIPASKHALVKFPTKIDFDNIKENYDTKVVKDREIHIKRARTPGQMQRGGFRGRGGFRGRGGFRGGFRGGYRGGFRGRGNFRGRGGARGGFNGQKREKIPLDQMERSKDTLYINNVPFKATKEEVAEFFGTDADSISLPMRKMRDQHTGRIFTSDSANRGMAFVTFSGENVDIEAKAEEFKGKVFGDRELTVDVAVIRPENDEEEIEQETGSEEKQE
B7: Rbg1 (protein, UniProt P39729 1-369)
chain: MSTTVEKIKAIEDEMARTQKNKATSFHLGQLKAKLAKLRRELLTSASSGSGGGAGIGFDVARTGVASVGFVGFPSVGKSTLLSKLTGTESEAAEYEFTTLVTVPGVIRYKGAKIQMLDLPGIIDGAKDGRGRGKQVIAVARTCNLLFIILDVNKPLHHKQIIEKELEGVGIRLNKTPPDILIKKKEKGGISITNTVPLTHLGNDEIRAVMSEYRINSAEIAFRCDATVDDLIDVLEASSRRYMPAIYVLNKIDSLSIEELELLYRIPNAVPISSGQDWNLDELLQVMWDRLNLVRIYTKPKGQIPDFTDPVVLRSDRCSVKDFCNQIHKSLVDDFRNALVYGSSVKHQPQYVGLSHILEDEDVVTILKK
B8: Pby1 (protein, UniProt P38254 1-753)
chain: MRVLITNDDGPLSDQFSPYIRPFIQHIKRNYPEWKITVCVPHVQKSWVGKAHLAGKNLTAQFIYSKVDAEDNTFWGPFIQPQIRSENSKLPYVLNAEIPKDTIEWILIDGTPASCANIGLHLLSNEPFDLVLSGPNVGRNTSAAYITSSGTVGGAMESVITGNTKAIAISWAYFNGLKNVSPLLMEKASKRSLDVIKHLVKNWDPKTDLYSINIPLVESLSDDTKVYYAPIWENRWIPIFNGPHINLENSFAEIEDGNESSSISFNWAPKFGAHKDSIHYMDEYKDRTVLTDAEVIESEMISVTPMKATFKGVNHLLGELKLTEEENNLSKTNNLIVVSIDPMEYIYKPLTHALKKYLPQVEIVSNLPEFDNGGCEKEMKVFHYGDYEQLDMDKLMELPNNYFTNSYIYRKALIRKHFLSHTIQTYTAKNPESILKKAYLESFTIDLDYAEFLDDALDENWELRQELENESQDKWWIVKPSMSDKGQGIRVFKTIEDLQAIFDSFDDEDSEAEESGNDDDADDVNGEFMDNNKVNISQLRHFIIQEYLTNPLLLASMDNRKFHIRCYVVCRGDLQVFVYDRMLALFAAKPFVPLDPYAYSVTDLKDLECHLTNTCLQSKKKDKDSSVLEFDSIEEIPNERKSNIKEQIHSITNDVFLAAVNVNRLNFQPLPNAFETYGVDFLIDSNYEVKLLEINAFPDFKQTGKDLKNLIDELFDDTVKYCVTPIFNENRNKTDDETDPNFVKVIDYTSNGW

What follows are binders tested against T1, Upf1-TAP (S. cerevisiae) (UniProt P30771) (assay: affinity purification with mass spectrometry).
T1 sequence: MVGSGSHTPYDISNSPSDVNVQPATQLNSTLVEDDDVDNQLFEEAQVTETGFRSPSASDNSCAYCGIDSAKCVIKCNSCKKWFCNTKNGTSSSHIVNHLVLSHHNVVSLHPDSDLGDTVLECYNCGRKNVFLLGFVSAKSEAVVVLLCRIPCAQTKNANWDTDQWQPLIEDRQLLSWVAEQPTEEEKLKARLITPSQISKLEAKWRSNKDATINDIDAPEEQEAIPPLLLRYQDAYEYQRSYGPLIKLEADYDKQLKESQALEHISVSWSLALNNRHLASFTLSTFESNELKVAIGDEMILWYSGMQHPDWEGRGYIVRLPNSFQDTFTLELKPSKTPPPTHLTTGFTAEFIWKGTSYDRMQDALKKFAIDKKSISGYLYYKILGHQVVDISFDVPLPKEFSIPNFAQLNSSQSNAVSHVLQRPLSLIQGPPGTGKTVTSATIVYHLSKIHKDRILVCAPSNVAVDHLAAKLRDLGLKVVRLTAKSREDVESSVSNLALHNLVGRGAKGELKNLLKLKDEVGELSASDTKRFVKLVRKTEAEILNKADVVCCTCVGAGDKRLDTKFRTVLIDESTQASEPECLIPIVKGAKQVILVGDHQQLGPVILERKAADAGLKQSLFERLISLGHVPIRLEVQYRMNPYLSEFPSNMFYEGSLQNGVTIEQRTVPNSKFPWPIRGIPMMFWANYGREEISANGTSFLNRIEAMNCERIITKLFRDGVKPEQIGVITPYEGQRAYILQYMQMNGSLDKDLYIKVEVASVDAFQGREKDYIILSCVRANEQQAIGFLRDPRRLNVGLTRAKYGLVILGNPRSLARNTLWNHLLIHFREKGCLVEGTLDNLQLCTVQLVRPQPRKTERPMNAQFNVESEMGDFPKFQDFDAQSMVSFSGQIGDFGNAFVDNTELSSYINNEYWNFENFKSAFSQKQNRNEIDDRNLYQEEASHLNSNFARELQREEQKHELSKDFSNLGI

binding, binds:
B1
B2
B3
B4
B5
B6
B7

What follows are binders tested against T2, Dcp1-TAP (S. cerevisiae) (UniProt Q12517) (assay: affinity purification with mass spectrometry).
T2 sequence: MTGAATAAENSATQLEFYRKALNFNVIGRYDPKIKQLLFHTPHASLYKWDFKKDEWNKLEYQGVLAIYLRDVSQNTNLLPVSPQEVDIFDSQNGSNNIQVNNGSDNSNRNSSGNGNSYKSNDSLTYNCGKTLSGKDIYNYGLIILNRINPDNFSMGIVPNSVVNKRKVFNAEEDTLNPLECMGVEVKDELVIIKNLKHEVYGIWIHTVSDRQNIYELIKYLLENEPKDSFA

binding, binds:
B8
